Assay results from paper PMC8462815.
No constants are given. Whether binding was seen depends on the method and setting. Binding can be weak; no strength is given. Where a sequence is shown, tags or fusion partners need not be part of it. For some of these results: In cells and extracts the contact can be indirect. Each block holds one binder with its values, some of them ahead of it.

By UniProt entry, the sequences of proteins in these tests, tags left out. Where a name states a change or a piece, a line headed by the entry shows the natural chain unless it says otherwise.
UniProt Q9FFC9: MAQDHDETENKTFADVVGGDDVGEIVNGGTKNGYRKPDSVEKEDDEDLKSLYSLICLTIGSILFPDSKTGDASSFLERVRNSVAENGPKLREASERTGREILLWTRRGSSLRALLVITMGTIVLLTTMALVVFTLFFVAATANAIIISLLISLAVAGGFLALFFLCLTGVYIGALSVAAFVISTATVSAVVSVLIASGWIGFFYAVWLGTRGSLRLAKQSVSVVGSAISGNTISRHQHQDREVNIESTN

How the values were obtained:
[1] = molecular target: full-length Arabidopsis LDIP, yeast two-hybrid fusion (pGBK/LDIP) (Arabidopsis thaliana); assay: two-hybrid; Gal4 yeast two-hybrid in Y2HGold; serial dilutions on DDO (-Trp -Leu) and QDO (-Trp -Leu -His -Ade) plates; growth on QDO read as interaction
[2] = molecular target: cCFP-LDIP (Arabidopsis LDIP fused to the C-terminal half of CFP) (Arabidopsis thaliana) (UniProt Q9FFC9); assay: split reporter; BiFC (cCFP/nVenus) in N. benthamiana leaf epidermal cells; Cherry-Perox as transformation marker; BiFC puncta per Cherry-Perox puncta counted in 30 leaf areas from three infiltrations

binding [1]: binds
Binder: FRSEPIRLVQTFFKVVPLVTGYV (domain or fragment, UniProt F4I340 394-416) [GFP-SEIPIN2 HH (SEIPIN2 HH sequence appended to GFP), yeast two-hybrid fusion (pGAD/GFP-SEIPIN2 HH)]

binding [2]: binds
B2: nVenus-SEIPIN2 (N-terminal half of Venus fused to Arabidopsis SEIPIN2) (protein, UniProt F4I340 1-526)
chain: MDSESESESNPSTTDEFDRFLDAPDEFYYDCLPIRSNSHQPSSLLRRRKSAHRRDLISSDIETEPSSSSDGFDVGEKSSYVEKNAELRGDIDTSDVIESTKDSIDLSSEKENDLDVISSSGNDMDVIDSGRNRVDPFQEESTVTTVSSDDQGDDDYAGSVPQFREPPNSTEWSLLGFLVGLVIKAIEFQVSFMTSLLTFPPWLLRNCFLFFFDPFSTIRFGRRFLMARVAGISDMIFGYMNPFRLKDTKQMLSIVCKFGWGMFWAVYVGIVLFGLLVSSLMIGGYVINRIADKPFEVKETLNFDYTKNSPEAYVPISSCAGVECEGSCKESNEMSKIRGLRVIPRDQKLDIILSMTLPESAYNKNLGMFQVRVDFLSVDGQTIASIRRPCMLRFRSEPIRLVQTFFKVVPLVTGYVSEIQTLSLKLKGFVEKDIPTACLKIIIEQRAEFRPGAGIPELYDASLSVESGLPFFRKIIWKWRKTLFVWISMSLFITELLFTLVCCRPLIIPRTQPRDRSPSNPTGVWR

Second part, the binder before the results:

B1: SEIPIN2ΔHH, yeast two-hybrid fusion (pGAD/SEIPIN2ΔHH) (protein, UniProt F4I340)
chain: MDSESESESNPSTTDEFDRFLDAPDEFYYDCLPIRSNSHQPSSLLRRRKSAHRRDLISSDIETEPSSSSDGFDVGEKSSYVEKNAELRGDIDTSDVIESTKDSIDLSSEKENDLDVISSSGNDMDVIDSGRNRVDPFQEESTVTTVSSDDQGDDDYAGSVPQFREPPNSTEWSLLGFLVGLVIKAIEFQVSFMTSLLTFPPWLLRNCFLFFFDPFSTIRFGRRFLMARVAGISDMIFGYMNPFRLKDTKQMLSIVCKFGWGMFWAVYVGIVLFGLLVSSLMIGGYVINRIADKPFEVKETLNFDYTKNSPEAYVPISSCAGVECEGSCKESNEMSKIRGLRVIPRDQKLDIILSMTLPESAYNKNLGMFQVRVDFLSVDGQTIASIRRPCMLRFSEIQTLSLKLKGFVEKDIPTACLKIIIEQRAEFRPGAGIPELYDASLSVESGLPFFRKIIWKWRKTLFVWISMSLFITELLFTLVCCRPLIIPRTQPRDRSPSNPTGVWR
binding [1]: no binding

B3: full-length Arabidopsis SEIPIN2, yeast two-hybrid fusion (pGAD/SEIPIN2) (protein, UniProt F4I340 1-526)
chain: B2 chain
binding [1]: binds
